Drawing on doi:10.1101/2020.11.23.391516, this text covers binding for two molecules.

These are yes or no findings as the source states them, for the method shown. In cells and extracts the contact can be indirect. Some binding calls cover weakened binding; strength is not graded here. Where a sequence is shown, tags or fusion partners need not be part of it.

In the test the target is T1, SOBIR1-GFP (Arabidopsis thaliana) (UniProt Q9SKB2).
T1 sequence: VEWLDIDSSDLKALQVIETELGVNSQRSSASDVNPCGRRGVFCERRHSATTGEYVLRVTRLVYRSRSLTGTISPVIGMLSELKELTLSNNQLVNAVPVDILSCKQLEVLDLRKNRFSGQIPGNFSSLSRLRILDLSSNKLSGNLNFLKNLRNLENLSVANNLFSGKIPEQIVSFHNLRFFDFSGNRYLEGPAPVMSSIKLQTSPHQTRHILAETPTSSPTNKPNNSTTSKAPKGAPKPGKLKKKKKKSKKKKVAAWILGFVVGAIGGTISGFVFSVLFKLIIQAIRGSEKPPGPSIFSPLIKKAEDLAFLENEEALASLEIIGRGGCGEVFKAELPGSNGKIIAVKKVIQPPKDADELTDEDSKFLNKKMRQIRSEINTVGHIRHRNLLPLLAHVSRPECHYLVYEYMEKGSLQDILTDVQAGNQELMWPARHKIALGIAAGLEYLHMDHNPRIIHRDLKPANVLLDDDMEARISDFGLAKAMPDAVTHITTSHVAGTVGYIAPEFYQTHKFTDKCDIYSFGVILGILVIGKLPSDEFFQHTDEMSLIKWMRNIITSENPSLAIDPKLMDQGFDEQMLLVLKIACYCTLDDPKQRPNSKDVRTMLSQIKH
Nature of the test: co-IP.

B1: EDS1 (protein, UniProt Q9XF23 1-623)
chain: MAFEALTGINGDLITRSWSASKQAYLTERYHKEEAGAVVIFAFQPSFSEKDFFDPDNKSSFGEIKLNRVQFPCMRKIGKGDVATVNEAFLKNLEAVIDPRTSFQASVEMAVRSRKQIVFTGHSSGGATAILATVWYLEKYFIRNPNVYLEPRCVTFGAPLVGDSIFSHALGREKWSRFFVNFVTRFDIVPRITLARKASVEETLPHVLAQLDPRNSSVQESEQRITEFYTSVMRDTSTVANQAVCELTGSAEAILETLSSFLELSPYRPAGTFVFSTEKRLVAVNNSDAILQMLFYTCQASDEQEWSLIPFRSIRDHHSYEELVQSMGMKLFNHLDGENSIESSLNDLGVSTRGRQYVQAALEEEKKRVENQKKIIQVIQQERFLKKLAWIEDEYKPKCQAHKNGYYDSFKVSNEENDFKANVKRAELAGVFDEVLGLLKKCQLPDEFEGDIDWIKLATRYRRLVEPLDIANYHRHLKNEDTGPYMKRGRPTRYIYAQRGYEHHILKPNGMIAEDVFWNKVNGLNLGLQLEEIQETLKNSGSECGSCFWAEVEELKGKPYEEVEVRVKTLEGMLREWITAGEVDEKEIFLEGSTFRKWWITLPKNHKSHSPLRDYMMDEITDT
In the case of B1, the binding entry is listed as “binds”.

B2: PAD4-HA (protein, UniProt Q9S745 1-541)
chain: MDDCRFETSELQASVMISTPLFTDSWSSCNTANCNGSIKIHDIAGITYVAIPAVSMIQLGNLVGLPVTGDVLFPGLSSDEPLPMVDAAILKLFLQLKIKEGLELELLGKKLVVITGHSTGGALAAFTALWLLSQSSPPSFRVFCITFGSPLLGNQSLSTSISRSRLAHNFCHVVSIHDLVPRSSNEQFWPFGTYLFCSDKGGVCLDNAGSVRLMFNILNTTATQNTEEHQRYGHYVFTLSHMFLKSRSFLGGSIPDNSYQAGVALAVEALGFSNDDTSGVLVKECIETATRIVRAPILRSAELANELASVLPARLEIQWYKDRCDASEEQLGYYDFFKRYSLKRDFKVNMSRIRLAKFWDTVIKMVETNELPFDFHLGKKWIYASQFYQLLAEPLDIANFYKNRDIKTGGHYLEGNRPKRYEVIDKWQKGVKVPEECVRSRYASTTQDTCFWAKLEQAKEWLDEARKESSDPQRRSLLREKIVPFESYANTLVTKKEVSLDVKAKNSSYSVWEANLKEFKCKMGYENEIEMVVDESDAMET
Take B2: the binding result is given as “binds”.
